These are yes or no findings as the source states them, for the method shown. Binding seen in cells or lysates may run through a third protein. Binding can be weak; no strength is given. For some of these results: Where a sequence is shown, tags or fusion partners need not be part of it.

The chains behind the UniProt entries cited, without tags or fusion partners. Where a name states a change or a piece, a line headed by the entry shows the natural chain unless it says otherwise.
UniProt Q01668: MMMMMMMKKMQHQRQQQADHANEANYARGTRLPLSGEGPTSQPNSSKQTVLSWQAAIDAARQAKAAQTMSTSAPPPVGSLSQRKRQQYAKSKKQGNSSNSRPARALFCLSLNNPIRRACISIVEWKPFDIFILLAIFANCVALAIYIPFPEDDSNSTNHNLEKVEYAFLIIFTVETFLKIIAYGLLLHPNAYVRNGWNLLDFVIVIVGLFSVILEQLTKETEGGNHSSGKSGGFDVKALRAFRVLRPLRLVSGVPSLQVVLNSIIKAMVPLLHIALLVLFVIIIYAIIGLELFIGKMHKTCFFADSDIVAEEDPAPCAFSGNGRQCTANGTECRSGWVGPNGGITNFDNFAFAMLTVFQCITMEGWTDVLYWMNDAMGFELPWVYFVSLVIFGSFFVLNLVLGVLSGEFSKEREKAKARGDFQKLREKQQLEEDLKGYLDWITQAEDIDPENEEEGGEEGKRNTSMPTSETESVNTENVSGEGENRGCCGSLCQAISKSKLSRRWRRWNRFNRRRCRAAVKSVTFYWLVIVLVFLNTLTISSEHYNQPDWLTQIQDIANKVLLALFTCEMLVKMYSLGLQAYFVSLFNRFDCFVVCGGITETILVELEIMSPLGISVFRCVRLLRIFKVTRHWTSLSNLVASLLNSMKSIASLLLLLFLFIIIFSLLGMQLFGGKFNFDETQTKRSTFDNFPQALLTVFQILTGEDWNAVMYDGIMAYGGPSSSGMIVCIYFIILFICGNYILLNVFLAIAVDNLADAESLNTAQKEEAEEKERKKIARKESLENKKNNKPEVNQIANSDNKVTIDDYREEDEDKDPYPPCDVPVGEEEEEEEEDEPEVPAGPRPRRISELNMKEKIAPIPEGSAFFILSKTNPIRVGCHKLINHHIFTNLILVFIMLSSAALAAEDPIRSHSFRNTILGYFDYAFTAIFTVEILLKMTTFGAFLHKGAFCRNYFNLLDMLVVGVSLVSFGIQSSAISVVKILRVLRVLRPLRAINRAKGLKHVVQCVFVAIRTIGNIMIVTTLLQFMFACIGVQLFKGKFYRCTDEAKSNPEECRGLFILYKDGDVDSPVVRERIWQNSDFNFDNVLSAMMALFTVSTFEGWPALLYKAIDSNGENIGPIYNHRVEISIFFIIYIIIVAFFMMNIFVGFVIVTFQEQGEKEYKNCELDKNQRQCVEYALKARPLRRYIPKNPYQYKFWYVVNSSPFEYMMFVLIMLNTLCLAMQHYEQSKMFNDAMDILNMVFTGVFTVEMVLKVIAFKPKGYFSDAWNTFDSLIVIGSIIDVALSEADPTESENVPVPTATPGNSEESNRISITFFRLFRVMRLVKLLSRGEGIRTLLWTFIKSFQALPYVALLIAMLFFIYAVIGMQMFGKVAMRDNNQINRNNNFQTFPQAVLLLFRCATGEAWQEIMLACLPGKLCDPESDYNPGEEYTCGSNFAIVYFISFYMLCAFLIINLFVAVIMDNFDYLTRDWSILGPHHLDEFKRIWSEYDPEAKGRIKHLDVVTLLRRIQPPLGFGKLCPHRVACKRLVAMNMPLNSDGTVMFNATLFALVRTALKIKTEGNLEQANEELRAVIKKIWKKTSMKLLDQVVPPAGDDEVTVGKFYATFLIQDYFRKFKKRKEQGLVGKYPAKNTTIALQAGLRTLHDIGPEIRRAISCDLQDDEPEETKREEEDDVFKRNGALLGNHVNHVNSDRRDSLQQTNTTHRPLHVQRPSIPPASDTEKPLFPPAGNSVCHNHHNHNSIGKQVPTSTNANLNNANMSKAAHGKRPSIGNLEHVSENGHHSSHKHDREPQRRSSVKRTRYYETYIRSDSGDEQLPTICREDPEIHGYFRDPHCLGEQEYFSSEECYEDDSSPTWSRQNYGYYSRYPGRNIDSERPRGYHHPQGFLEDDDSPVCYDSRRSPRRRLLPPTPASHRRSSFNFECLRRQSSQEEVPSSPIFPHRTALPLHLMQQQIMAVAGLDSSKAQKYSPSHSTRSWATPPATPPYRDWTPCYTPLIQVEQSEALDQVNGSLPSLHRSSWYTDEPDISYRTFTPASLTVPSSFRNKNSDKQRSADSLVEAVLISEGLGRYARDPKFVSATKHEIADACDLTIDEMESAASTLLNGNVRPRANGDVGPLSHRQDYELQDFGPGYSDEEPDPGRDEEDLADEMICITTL

The target of the first test is 3xFlag-DCTD (distal C-terminus of CaV1.3 α1D) (not stated (human or rat cDNA cloned)) (UniProt Q01668). Description: co-IP.
As to CFP-Ng_S36D (from UniProt Q04940 1-78), the binding result is recorded as “binds”.

Regarding “Neurogranin (Ng), wild type, YFP-tagged, phosphorylated by PKC (cells treated with PMA) (from UniProt Q04940 1-78)”, the binding result was “binds”. Turning to “YFP-IQD (IQ domain of CaV1.3 α1D) (from UniProt Q01668-1) (domain or fragment)”, the binding entry is “binds”. For “YFP-Ng_S36D-Myc-His (from UniProt Q04940 1-78)”, the binding entry is recorded as “binds”.

On to ANAAAAKIQASFRGHMARKKIK (domain or fragment, UniProt Q04940 26-47) [YFP-IQNg], for which the binding entry was “binds”. For the molecule AHKAATKIQASFRGHITRKKLKDEKKGDAP (domain or fragment, UniProt P07936 31-60) [YFP-IQNm (IQ domain of neuromodulin)], the binding result was “binds”.

The target is the same in another test. Description: co-IP. The source holds these as a separate data set.
Turning to “YFP-Ng_S36D-Myc-His (from UniProt Q04940 1-78)”, the binding entry is given as “binds”.

Values taken from paper doi:10.1101/2025.06.20.660829.
